# Data reported in the supplement of paper PMC8728848.
# Some of the results follow.
# B1: Wzz (Escherichia coli) (protein)
# chain: MRTWKFPSVRVMMRVENNNVSGQNHDPEQIDLIDLLVQLWRGKMTIIISVIVAIVLAIGYLAVAKEKWTSTAIITQPDVGQIAGYNNAMNVIYGQAAPKVSDLQETLIGRFSSAFSALAETLDNQEEPEKLTIEPSVKNQQLPLTVSYVGQTAEGAQMKLAQYIQQVDDKVNQELEKDLKDNIALGRKNLQDSLRTQEVVAQEQKDLRIRQIQEALQYANQAQVTKPQIQQTGEDITQDTLFLLGSEALESMIKHEATRPLVFSSNYYQTRQNLLDIDNLDVDKLDIHAYLYVMKPTLPIRRDSPKKAITLILAVLLGGMVGAGIVLGRNALRNYNAK
# Legend:
# Assay in all cases: glycan array binding signal (z-score within array); higher = stronger binding
# Conditions in all cases: glycan notation: IUPAC condensed, linker removed
# [1] = molecular target: Neu5Ac(a2-6)Gal(b1-4)GlcNAc(b1-2)Man(a1-3)[Man(a1-6)]Man(b1-4)GlcNAc(b1-4)GlcNAc
# Outline: (§1)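 The binding signal is a Z-score computed within each array. Data were drawn from 3228 arrays in the Consortium for Functional Glycomics database, restricted to those with a known protein sequence. Scores were averaged over arrays of the same protein sequence at different concentrations or buffers, and over linkers, and negative values can be taken as non-binding.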
# [2] = molecular target: Neu5Ac(a2-6)Gal(b1-4)GlcNAc(b1-2)Man(a1-3)[Neu5Ac(a2-3)Gal(b1-4)GlcNAc(b1-2)Man(a1-6)]Man(b1-4)GlcNAc(b1-4)GlcNAc
# Outline: as §1
# [3] = molecular target: Neu5Ac(a2-6)Gal(b1-4)GlcNAc(b1-2)Man(a1-3)[Neu5Ac(a2-6)Gal(b1-4)GlcNAc(b1-2)Man(a1-6)]Man(b1-4)GlcNAc(b1-4)GlcNAc
# Outline: as §1
# [4] = molecular target: Neu5Ac(a2-6)Gal(b1-4)GlcNAc(b1-2)Man(a1-3)[Neu5Ac(a2-6)Gal(b1-4)GlcNAc(b1-2)Man(a1-6)]Man(b1-4)GlcNAc(b1-4)[Fuc(a1-6)]GlcNAc
# Outline: as §1
# [5] = molecular target: Neu5Ac(a2-6)Gal(b1-4)GlcNAc(b1-2)Man(a1-6)Man(b1-4)GlcNAc(b1-4)GlcNAc
# Outline: as §1
# [6] = molecular target: Neu5Ac(a2-6)Gal(b1-4)GlcNAc(b1-2)Man(a1-6)[Gal(b1-4)GlcNAc(b1-2)Man(a1-3)]Man(b1-4)GlcNAc(b1-4)GlcNAc
# Outline: as §1
# [7] = molecular target: Neu5Ac(a2-6)Gal(b1-4)GlcNAc(b1-2)Man(a1-6)[GlcNAc(b1-2)Man(a1-3)]Man(b1-4)GlcNAc(b1-4)GlcNAc
# Outline: as §1
# [8] = molecular target: Neu5Ac(a2-6)Gal(b1-4)GlcNAc(b1-2)Man(a1-6)[Man(a1-3)]Man(b1-4)GlcNAc(b1-4)GlcNAc
# Outline: as §1
# [9] = molecular target: Neu5Ac(a2-6)Gal(b1-4)GlcNAc(b1-2)[Neu5Ac(a2-6)Gal(b1-4)GlcNAc(b1-4)]Man(a1-3)[GlcNAc(b1-4)][Neu5Ac(a2-6)Gal(b1-4)GlcNAc(b1-2)[Neu5Ac(a2-6)Gal(b1-4)GlcNAc(b1-6)]Man(a1-6)]Man(b1-4)GlcNAc(b1-4)GlcNAc
# Outline: as §1
# [10] = molecular target: Neu5Ac(a2-6)Gal(b1-4)GlcNAc(b1-2)[Neu5Ac(a2-6)Gal(b1-4)GlcNAc(b1-4)]Man(a1-3)[GlcNAc(b1-4)][Neu5Ac(a2-6)Gal(b1-4)GlcNAc(b1-4)Man(a1-6)]Man(b1-4)GlcNAc(b1-4)GlcNAc
# Outline: as §1
# [11] = molecular target: Neu5Ac(a2-6)Gal(b1-4)GlcNAc(b1-2)[Neu5Ac(a2-6)Gal(b1-4)GlcNAc(b1-6)]Man(a1-6)[Neu5Ac(a2-6)Gal(b1-4)GlcNAc(b1-2)Man(a1-3)][GlcNAc(b1-4)]Man(b1-4)GlcNAc(b1-4)GlcNAc
# Outline: as §1
# [12] = molecular target: Neu5Ac(a2-6)Gal(b1-4)GlcNAc(b1-3)Gal(b1-3)GlcNAc
# Outline: as §1
# [13] = molecular target: Neu5Ac(a2-6)Gal(b1-4)GlcNAc(b1-3)Gal(b1-4)GlcNAc
# Outline: as §1
# [14] = molecular target: Neu5Ac(a2-6)Gal(b1-4)GlcNAc(b1-3)Gal(b1-4)GlcNAc(b1-2)Man(a1-3)[Neu5Ac(a2-6)Gal(b1-4)GlcNAc(b1-3)Gal(b1-4)GlcNAc(b1-2)Man(a1-6)]GalNAc
# Outline: as §1
# [15] = molecular target: Neu5Ac(a2-6)Gal(b1-4)GlcNAc(b1-3)Gal(b1-4)GlcNAc(b1-3)Gal(b1-4)GlcNAc
# Outline: as §1
# [16] = molecular target: Neu5Ac(a2-6)Gal(b1-4)GlcNAc(b1-3)Gal(b1-4)GlcNAc(b1-3)Gal(b1-4)GlcNAc(b1-2)Man(a1-3)[Neu5Ac(a2-6)Gal(b1-4)GlcNAc(b1-3)Gal(b1-4)GlcNAc(b1-3)Gal(b1-4)GlcNAc(b1-2)Man(a1-6)]GalNAc
# Outline: as §1
# [17] = molecular target: Neu5Ac(a2-6)Gal(b1-4)GlcNAc(b1-3)Gal(b1-4)GlcNAc(b1-3)GalNAc
# Outline: as §1
# [18] = molecular target: Neu5Ac(a2-6)Gal(b1-4)GlcNAc(b1-3)Gal(b1-4)GlcNAc(b1-3)[Neu5Ac(a2-6)Gal(b1-4)GlcNAc(b1-3)Gal(b1-4)GlcNAc(b1-6)]GalNAc
# Outline: as §1
# [19] = molecular target: Neu5Ac(a2-6)Gal(b1-4)GlcNAc(b1-3)Gal(b1-4)GlcNAc(b1-6)[Gal(b1-3)]GalNAc
# Outline: as §1
# [20] = molecular target: Neu5Ac(a2-6)Gal(b1-4)GlcNAc(b1-3)Gal(b1-4)[Fuc(a1-3)]GlcNAc(b1-3)Gal(b1-4)[Fuc(a1-3)]GlcNAc
# Outline: as §1
# [21] = molecular target: Neu5Ac(a2-6)Gal(b1-4)GlcNAc(b1-3)GalNAc
# Outline: as §1
# [22] = molecular target: Neu5Ac(a2-6)Gal(b1-4)GlcNAc(b1-3)[Neu5Ac(a2-6)Gal(b1-4)GlcNAc(b1-6)]GalNAc
# Outline: as §1
# [23] = molecular target: Neu5Ac(a2-6)Gal(b1-4)GlcNAc(b1-6)GalNAc
# Outline: as §1
# [24] = molecular target: Neu5Ac(a2-6)Gal(b1-4)GlcNAc(b1-6)[Gal(b1-3)GlcNAc(b1-3)]Gal(b1-4)Glc
# Outline: as §1
# [25] = molecular target: Neu5Ac(a2-6)Gal(b1-4)GlcNAc(b1-6)[Gal(b1-3)]GalNAc
# Outline: as §1
# [26] = molecular target: Neu5Ac(a2-6)Gal(b1-4)GlcNAc6S
# Outline: as §1
# Neu5Ac(a2-6)GalNAc = molecular target: Neu5Ac(a2-6)GalNAc
# Outline: as §1
# [27] = molecular target: Neu5Ac(a2-6)GalNAc(b1-4)GlcNAc
# Outline: as §1
# [28] = molecular target: Neu5Ac(a2-6)GalNAc(b1-4)GlcNAc6S
# Outline: as §1
# [29] = molecular target: Neu5Ac(a2-6)GlcNAc(b1-4)GlcNAc
# Outline: as §1
# [30] = molecular target: Neu5Ac(a2-6)GlcNAc(b1-4)GlcNAc(b1-4)GlcNAc
# Outline: as §1
binder,measurement,setting,value
B1,glycan array binding signal (z-score),[1],0.686
same,glycan array binding signal (z-score),[2],-0.083
same,glycan array binding signal (z-score),[3],-0.151
same,glycan array binding signal (z-score),[4],-0.603
same,glycan array binding signal (z-score),[5],2.29
same,glycan array binding signal (z-score),[6],1.24
same,glycan array binding signal (z-score),[7],0.335
same,glycan array binding signal (z-score),[8],1.66
same,glycan array binding signal (z-score),[9],-0.038
same,glycan array binding signal (z-score),[10],-0.003
same,glycan array binding signal (z-score),[11],0.568
same,glycan array binding signal (z-score),[12],-0.164
same,glycan array binding signal (z-score),[13],-0.401
same,glycan array binding signal (z-score),[14],0.089
same,glycan array binding signal (z-score),[15],-0.268
same,glycan array binding signal (z-score),[16],0.712
same,glycan array binding signal (z-score),[17],-0.637
same,glycan array binding signal (z-score),[18],0.074
same,glycan array binding signal (z-score),[19],1.21
same,glycan array binding signal (z-score),[20],0.316
same,glycan array binding signal (z-score),[21],0.018
same,glycan array binding signal (z-score),[22],1.31
same,glycan array binding signal (z-score),[23],1.4
same,glycan array binding signal (z-score),[24],-0.436
same,glycan array binding signal (z-score),[25],0.187
same,glycan array binding signal (z-score),[26],-0.593
same,glycan array binding signal (z-score),Neu5Ac(a2-6)GalNAc,-0.89
same,glycan array binding signal (z-score),[27],-0.993
same,glycan array binding signal (z-score),[28],-0.127
same,glycan array binding signal (z-score),[29],0.29
same,glycan array binding signal (z-score),[30],-0.069

# Some of the entries so far, tab-delimited.
binder	measurement	setting	value
B1	glycan array binding signal (z-score)	[29]	0.29
same	glycan array binding signal (z-score)	[30]	-0.069
